This passage reports binding results from PMC5426800.

Chains of the proteins cited; added tags and fusions are not shown.
UniProt P49736: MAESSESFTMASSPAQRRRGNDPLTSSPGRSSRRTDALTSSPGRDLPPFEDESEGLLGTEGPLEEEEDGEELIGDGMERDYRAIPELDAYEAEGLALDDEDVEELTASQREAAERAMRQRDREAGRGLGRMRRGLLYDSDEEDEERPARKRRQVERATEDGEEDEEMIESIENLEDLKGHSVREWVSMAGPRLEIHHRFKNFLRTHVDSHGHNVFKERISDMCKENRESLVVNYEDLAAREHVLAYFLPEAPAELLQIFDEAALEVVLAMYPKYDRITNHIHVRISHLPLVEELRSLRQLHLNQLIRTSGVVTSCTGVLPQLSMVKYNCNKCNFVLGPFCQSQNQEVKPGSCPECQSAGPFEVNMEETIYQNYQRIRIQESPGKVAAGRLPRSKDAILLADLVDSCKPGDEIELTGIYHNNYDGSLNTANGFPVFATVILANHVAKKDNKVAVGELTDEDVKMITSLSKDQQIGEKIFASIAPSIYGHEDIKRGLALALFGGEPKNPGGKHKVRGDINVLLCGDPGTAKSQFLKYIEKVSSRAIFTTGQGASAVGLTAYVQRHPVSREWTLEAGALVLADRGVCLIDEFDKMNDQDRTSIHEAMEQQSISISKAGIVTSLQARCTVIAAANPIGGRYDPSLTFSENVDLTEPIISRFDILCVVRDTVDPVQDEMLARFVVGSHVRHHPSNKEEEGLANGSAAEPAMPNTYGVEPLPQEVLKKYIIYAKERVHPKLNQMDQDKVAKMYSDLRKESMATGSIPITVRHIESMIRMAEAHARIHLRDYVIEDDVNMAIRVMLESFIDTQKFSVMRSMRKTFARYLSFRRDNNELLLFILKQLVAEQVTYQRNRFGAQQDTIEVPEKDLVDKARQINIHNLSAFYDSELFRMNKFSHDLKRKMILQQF
UniProt Q15329: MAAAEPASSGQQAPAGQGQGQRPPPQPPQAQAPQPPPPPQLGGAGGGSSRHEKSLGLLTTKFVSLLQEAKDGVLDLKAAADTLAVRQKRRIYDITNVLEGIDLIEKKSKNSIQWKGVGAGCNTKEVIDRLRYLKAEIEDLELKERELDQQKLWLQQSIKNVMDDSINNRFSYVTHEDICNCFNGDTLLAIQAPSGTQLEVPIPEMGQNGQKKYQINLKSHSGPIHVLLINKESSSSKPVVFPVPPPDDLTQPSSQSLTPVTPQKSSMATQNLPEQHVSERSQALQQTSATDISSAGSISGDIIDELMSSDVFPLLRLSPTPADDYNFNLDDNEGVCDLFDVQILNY
UniProt P51692: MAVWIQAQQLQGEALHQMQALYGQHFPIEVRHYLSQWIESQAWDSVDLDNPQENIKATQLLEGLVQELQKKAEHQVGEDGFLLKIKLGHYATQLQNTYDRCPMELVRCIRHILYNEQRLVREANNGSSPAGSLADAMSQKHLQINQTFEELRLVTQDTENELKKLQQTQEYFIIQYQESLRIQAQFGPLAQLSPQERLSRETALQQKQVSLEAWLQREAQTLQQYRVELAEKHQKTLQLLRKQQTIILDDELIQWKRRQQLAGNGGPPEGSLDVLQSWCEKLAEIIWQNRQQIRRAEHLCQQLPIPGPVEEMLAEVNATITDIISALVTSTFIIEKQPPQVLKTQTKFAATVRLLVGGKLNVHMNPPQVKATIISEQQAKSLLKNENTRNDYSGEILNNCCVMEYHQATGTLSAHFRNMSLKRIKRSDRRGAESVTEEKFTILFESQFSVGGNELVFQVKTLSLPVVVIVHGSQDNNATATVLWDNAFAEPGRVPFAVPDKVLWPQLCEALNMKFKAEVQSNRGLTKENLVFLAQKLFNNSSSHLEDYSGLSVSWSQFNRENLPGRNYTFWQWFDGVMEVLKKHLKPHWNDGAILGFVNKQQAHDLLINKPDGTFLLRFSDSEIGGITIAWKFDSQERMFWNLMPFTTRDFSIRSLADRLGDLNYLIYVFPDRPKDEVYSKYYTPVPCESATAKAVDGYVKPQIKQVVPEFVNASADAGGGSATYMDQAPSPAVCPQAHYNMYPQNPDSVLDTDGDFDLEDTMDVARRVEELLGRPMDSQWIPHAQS

Results are given in words; binding and its absence hold for the method and conditions named. In cells and extracts the contact can be indirect. Some entries that bind do so weakly or less than the wild type. For part of these data: Sequences can lack the tags named with a protein.

In experiment [1] the target is T1, B19V large non-structural protein NS1, Flag-tagged (human parvovirus B19) (UniProt Q9PZT1).
T1 sequence: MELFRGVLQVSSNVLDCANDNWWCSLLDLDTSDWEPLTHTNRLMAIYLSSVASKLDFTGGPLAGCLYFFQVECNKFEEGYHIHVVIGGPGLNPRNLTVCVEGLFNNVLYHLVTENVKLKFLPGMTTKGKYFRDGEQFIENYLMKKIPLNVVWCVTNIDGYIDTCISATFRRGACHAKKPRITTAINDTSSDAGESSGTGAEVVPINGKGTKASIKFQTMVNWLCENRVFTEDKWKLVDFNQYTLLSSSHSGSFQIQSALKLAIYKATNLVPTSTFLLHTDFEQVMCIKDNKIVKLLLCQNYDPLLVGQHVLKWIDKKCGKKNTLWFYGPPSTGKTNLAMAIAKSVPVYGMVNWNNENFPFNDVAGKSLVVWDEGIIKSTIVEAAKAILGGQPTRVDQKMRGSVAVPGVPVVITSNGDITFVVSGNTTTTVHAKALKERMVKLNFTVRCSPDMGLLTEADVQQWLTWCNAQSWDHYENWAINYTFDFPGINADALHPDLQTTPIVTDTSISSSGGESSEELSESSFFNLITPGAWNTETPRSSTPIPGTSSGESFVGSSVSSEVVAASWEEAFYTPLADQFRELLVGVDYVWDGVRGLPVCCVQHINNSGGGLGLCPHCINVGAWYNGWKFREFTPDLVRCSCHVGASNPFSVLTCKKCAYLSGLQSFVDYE
Description: co-IP; anti-Flag-conjugated beads or control beads on lysates of NS1-Flag-expressing UT7/Epo-S1 cells; blots for MCM2, pSTAT5(Y694), E2F5 and Flag; the paper calls it a pull-down.

The target in experiment [2] is MCM2 (minichromosome maintenance complex subunit 2) (human (endogenous in UT7/Epo-S1 and CD36+ EPCs)) (UniProt P49736). Description: co-IP; endogenous proteins; UT7/Epo-S1 cells lysed in RIPA buffer, 3 ug antibody (anti-pSTAT5(Y694), anti-MCM5, anti-MCM2 or control IgG) overnight at 4 C, Protein A/G beads, washed with PBS; lysate with or without DNase (750 units of Benzonase) in Fig 7D.

For the substance “MCM2 (minichromosome maintenance complex subunit 2) (from UniProt P49736 1-904)”, the binding entry in experiment [1] is listed as “no binding”.

On to “transcription factor E2F5 (from UniProt Q15329 1-346)”, for which the binding result in experiment [1] is listed as “binds”.

As for STAT5B (from UniProt P51692 1-787), the binding result in experiment [2] was “binds”.
